Our source for the Kd values is publication PMC2603005, “Structural insights into phenylethanolamines high-affinity binding site in NR2B from binding and molecular modeling studies” (Molecular Brain, 2008).

Sequences of proteins named here, by UniProt entry; tags and fusion partners are left off. Residues count along the entry.
UniProt Q00960, 27-393: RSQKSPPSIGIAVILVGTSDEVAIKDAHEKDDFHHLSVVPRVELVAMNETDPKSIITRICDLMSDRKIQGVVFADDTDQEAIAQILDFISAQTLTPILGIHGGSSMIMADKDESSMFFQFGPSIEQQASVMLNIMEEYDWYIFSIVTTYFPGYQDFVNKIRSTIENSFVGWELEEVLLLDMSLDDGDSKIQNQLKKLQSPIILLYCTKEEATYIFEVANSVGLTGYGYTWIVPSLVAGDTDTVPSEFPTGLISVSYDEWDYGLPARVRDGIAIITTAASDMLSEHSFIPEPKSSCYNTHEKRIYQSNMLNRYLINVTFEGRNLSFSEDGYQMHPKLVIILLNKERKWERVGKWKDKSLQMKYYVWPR

This assay addresses 6 × His-ATD2B (amino-terminal domain of NR2B subunit), wild type (Rattus norvegicus, UniProt Q00960). Kind of assay: biochemical. The following applies: Buffer-9 refolded protein, CD at 25°C, mean ± S.E., n = 5.

The term Kd denotes the free concentration of one partner at which half of the binding sites on the other are occupied at equilibrium, for simple one-to-one binding. Take `O=C(CCCN1CCC(O)(c2ccc(Cl)cc2)CC1)c1ccc(F)cc1` [haloperidol]: the Kd was 3.09 ± 0.94 µM.
